Assay results from publication PMC12690526.
Results are given in words; binding and its absence hold for the method and conditions named.

Amino acid sequences for entries named in this document (tags omitted).
UniProt O75533: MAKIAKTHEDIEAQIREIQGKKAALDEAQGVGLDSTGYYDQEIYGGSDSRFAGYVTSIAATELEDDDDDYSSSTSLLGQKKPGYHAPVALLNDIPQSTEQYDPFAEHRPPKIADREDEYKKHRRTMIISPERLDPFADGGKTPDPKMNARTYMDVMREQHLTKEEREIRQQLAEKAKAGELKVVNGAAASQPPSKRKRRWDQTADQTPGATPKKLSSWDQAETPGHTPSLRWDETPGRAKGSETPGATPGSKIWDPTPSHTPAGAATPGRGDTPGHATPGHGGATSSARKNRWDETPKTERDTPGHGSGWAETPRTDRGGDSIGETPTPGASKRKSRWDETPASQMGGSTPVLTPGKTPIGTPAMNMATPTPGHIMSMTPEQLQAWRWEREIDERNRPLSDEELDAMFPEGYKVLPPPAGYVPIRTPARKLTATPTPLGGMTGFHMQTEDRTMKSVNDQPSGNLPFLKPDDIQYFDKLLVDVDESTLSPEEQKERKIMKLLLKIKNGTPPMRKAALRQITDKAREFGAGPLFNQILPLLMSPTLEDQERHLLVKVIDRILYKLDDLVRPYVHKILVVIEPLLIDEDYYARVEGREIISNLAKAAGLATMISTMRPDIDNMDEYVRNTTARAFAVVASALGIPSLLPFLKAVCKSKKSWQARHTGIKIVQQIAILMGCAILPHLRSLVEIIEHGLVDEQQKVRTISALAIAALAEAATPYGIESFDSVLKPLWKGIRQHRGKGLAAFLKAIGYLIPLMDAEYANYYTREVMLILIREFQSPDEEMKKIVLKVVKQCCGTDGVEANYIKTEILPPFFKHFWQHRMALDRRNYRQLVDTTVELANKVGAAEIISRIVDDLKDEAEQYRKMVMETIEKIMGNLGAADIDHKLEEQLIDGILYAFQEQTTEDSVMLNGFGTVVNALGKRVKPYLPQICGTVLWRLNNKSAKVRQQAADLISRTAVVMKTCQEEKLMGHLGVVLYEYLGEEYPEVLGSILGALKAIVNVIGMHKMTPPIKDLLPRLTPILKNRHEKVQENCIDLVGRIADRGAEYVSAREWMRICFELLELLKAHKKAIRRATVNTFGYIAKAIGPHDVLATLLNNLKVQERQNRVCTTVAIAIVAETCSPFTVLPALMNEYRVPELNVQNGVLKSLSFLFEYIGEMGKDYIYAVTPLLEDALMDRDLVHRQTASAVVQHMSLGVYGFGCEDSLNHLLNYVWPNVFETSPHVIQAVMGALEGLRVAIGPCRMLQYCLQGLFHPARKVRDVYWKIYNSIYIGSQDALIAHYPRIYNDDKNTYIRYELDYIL
UniProt Q9HCM7: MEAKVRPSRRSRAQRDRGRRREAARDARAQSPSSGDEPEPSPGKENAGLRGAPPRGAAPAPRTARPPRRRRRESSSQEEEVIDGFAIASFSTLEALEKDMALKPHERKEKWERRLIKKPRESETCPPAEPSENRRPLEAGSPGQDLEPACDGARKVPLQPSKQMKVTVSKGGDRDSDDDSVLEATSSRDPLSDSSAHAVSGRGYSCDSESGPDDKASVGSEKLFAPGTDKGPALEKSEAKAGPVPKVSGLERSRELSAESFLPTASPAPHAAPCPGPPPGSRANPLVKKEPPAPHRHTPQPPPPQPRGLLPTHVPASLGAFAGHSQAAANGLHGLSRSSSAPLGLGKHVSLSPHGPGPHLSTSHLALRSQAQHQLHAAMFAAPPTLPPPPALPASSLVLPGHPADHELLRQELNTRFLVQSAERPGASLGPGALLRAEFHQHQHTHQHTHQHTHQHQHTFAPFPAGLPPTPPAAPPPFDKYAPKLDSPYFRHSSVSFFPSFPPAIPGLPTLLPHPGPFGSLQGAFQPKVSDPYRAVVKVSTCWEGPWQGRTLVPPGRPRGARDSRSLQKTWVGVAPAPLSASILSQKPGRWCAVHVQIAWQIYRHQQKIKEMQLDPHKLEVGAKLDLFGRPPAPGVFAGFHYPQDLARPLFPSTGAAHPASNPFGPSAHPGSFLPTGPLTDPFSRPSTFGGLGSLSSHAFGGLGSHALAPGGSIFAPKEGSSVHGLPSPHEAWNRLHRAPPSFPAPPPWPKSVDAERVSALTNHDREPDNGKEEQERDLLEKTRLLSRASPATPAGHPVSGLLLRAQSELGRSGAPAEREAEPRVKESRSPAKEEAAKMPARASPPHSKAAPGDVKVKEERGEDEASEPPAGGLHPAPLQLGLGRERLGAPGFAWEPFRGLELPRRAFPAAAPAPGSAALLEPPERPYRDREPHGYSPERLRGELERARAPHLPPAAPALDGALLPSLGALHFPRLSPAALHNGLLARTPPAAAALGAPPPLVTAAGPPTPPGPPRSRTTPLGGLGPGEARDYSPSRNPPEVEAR

Biological target: human full-length SF3B1 (two-hybrid bait) (human) (UniProt O75533)
Experiment: two-hybrid; Matchmaker Gold system, S. cerevisiae Y2HGold; SF3B1 constructs as bait in pGBKT7, FBRSL1 isoforms as prey in pGADT7; growth on -LTHA selective plates, -LT plates as control of co-transformation

binding: no binding
Substance: human FBRSL1 isoform 1 (two-hybrid prey) (from UniProt Q9HCM7 1-1045)
